Data source: PubChem BioAssay AID652259 (Drosophila RNAi Screening Center, 2013)
The deposit covers about 22,000 reagents; this is a random part of those that have a named target and a result. Over the whole deposit, 233 (1.1%) got an active call. 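Light values are raw, unnormalised plate reads; the ratio scores behind the reporter calls were not deposited.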 The record does not give: the amount of reagent, the time to read-out, the dose of the treatment.

- Aim: 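Identify new Wingless signalling regulators in fly cells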 (primary screen)
- System: Drosophila clone 8 imaginal disc epithelial cells
- Knock-down reagent: long dsRNA against Drosophila genes
- Conditions: pathway stimulated by co-transfected Wingless expression plasmid
- Read-out: 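Firefly luciferase from a tcf-site Wingless reporter, measured alongside co-transfected Renilla luciferase that tracks transfection; pathway stimulated by a Wingless plasmid; the firefly-to-Renilla ratio is not deposited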
- Scale: firefly reporter light: higher = more Wg reporter light, before normalisation; Renilla control light: higher = more transfected or surviving cells
- Call rule: 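Strong candidates differ from their plate mean by at least two out of four per-plate statistical tests; weak candidates meet just one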
- Calls: active = candidate regulator (raises or lowers reporter); inactive = not a candidate

With knock-down of CG5614 [DRSC15845], the record shows firefly reporter light, replicate 1 = 20467; Renilla control light, replicate 1 = 2937; inactive.
For CG1368 [DRSC19537], the entry reads firefly reporter light, replicate 1 = 3350; firefly reporter light, replicate 2 = 7522; Renilla control light, replicate 1 = 1052; Renilla control light, replicate 2 = 2723; inactive.
Against Rack1 (Receptor of activated protein kinase C 1) [DRSC03405] the deposit lists firefly reporter light, replicate 1 = 2103; firefly reporter light, replicate 2 = 6618; Renilla control light, replicate 1 = 1078; Renilla control light, replicate 2 = 4215; inactive.
CG14695 [DRSC14918] showed firefly reporter light, replicate 1 = 15510; Renilla control light, replicate 1 = 3514; inactive.
For CG12237 [DRSC19449], the values are firefly reporter light, replicate 1 = 4678; firefly reporter light, replicate 2 = 8790; Renilla control light, replicate 1 = 1712; Renilla control light, replicate 2 = 3356; inactive.
Depletion of CG12237 [DRSC22256] came out at: firefly reporter light, replicate 1 = 3.81e5; firefly reporter light, replicate 2 = 4.08e5; Renilla control light, replicate 1 = 1.37e5; Renilla control light, replicate 2 = 1.57e5; inactive.
For CG15322 [DRSC20680], the values are firefly reporter light, replicate 1 = 15744; Renilla control light, replicate 1 = 5757; inactive.
Depletion of CG31360 [DRSC13255] gave: firefly reporter light, replicate 1 = 4339; Renilla control light, replicate 1 = 2105; inactive.
After knock-down of Ubc87F (Ubiquitin conjugating enzyme 87F) [DRSC16513] the results were firefly reporter light, replicate 1 = 16187; Renilla control light, replicate 1 = 4320; inactive.
After knock-down of Ogg1 (8-oxoguanine DNA glycosylase) [DRSC17738], the screen gave firefly reporter light, replicate 1 = 3015; firefly reporter light, replicate 2 = 4304; Renilla control light, replicate 1 = 935; Renilla control light, replicate 2 = 1675; inactive.
CG5104 [DRSC11765] gave firefly reporter light, replicate 1 = 19074; Renilla control light, replicate 1 = 4513; inactive.
Depletion of Srr (Serine racemase) [DRSC16382] gave: firefly reporter light, replicate 1 = 21479; Renilla control light, replicate 1 = 6198; inactive.
Silencing of ana3 (anastral spindle 3) [DRSC06289] resulted in: firefly reporter light, replicate 1 = 4947; Renilla control light, replicate 1 = 2249; inactive.
Pus10 (Pseudouridine synthase 10) [DRSC00629] gave firefly reporter light, replicate 1 = 4909; Renilla control light, replicate 1 = 1889; inactive.
Against SA1 (Stromalin 1) [DRSC03424], the entry reads firefly reporter light, replicate 1 = 11840; Renilla control light, replicate 1 = 4409; inactive.
Sas10 (Something about silencing 10) [DRSC18355] scored firefly reporter light, replicate 1 = 11965; Renilla control light, replicate 1 = 8011; inactive.
With knock-down of CG3251 [DRSC00586] the results were firefly reporter light, replicate 1 = 2960; firefly reporter light, replicate 2 = 5719; Renilla control light, replicate 1 = 1483; Renilla control light, replicate 2 = 995; inactive.

Part of the list above, reformatted.
{"gene":"CG12237","DRSC id":"DRSC22256","firefly reporter light, replicate 1":3.81e5,"firefly reporter light, replicate 2":4.08e5,"Renilla control light, replicate 1":1.37e5,"Renilla control light, replicate 2":1.57e5,"outcome":"inactive"}
{"gene":"CG15322","DRSC id":"DRSC20680","firefly reporter light, replicate 1":15744,"Renilla control light, replicate 1":5757,"outcome":"inactive"}
